From US20200340060A1, “COMPOSITIONS AND METHODS FOR IDENTIFYING AND TREATING LIVER DISEASES AND MONITORING TREATMENT OUTCOMES” (Gilead Sciences, Inc., priority 2017, published 2020)

B1: LG3BP (protein, UniProt Q08380 19-585, looked up)
Galectin-3-binding protein: VNDGDMRLADGGATNQGRVEIFYRGQWGTVCDNLWDLTDASVVCRALGFENATQALGRAAFGQGSGPIMLDEVQCTGTEASLADCKSLGWLKSNCRHERDAGVVCTNETRSTHTLDLSRELSEALGQIFDSQRGCDLSISVNVQGEDALGFCGHTVILTANLEAQALWKEPGSNVTMSVDAECVPMVRDLLRYFYSRRIDITLSSVKCFHKLASAYGARQLQGYCASLFAILLPQDPSFQMPLDLYAYAVATGDALLEKLCLQFLAWNFEALTQAEAWPSVPTDLLQLLLPRSDLAVPSELALLKAVDTWSWGERASHEEVEGLVEKIRFPMMLPEELFELQFNLSLYWSHEALFQKKTLQALEFHTVPFQLLARYKGLNLTEDTYKPRIYTSPTWSAFVTDSSWSARKSQLVYQSRRGPLVKYSSDYFQAPSDYRYYPYQSFQTPQHPSFLFQDKRVSWSLVYLPTIQSCWNYGFSCSSDELPVLGLTKSGGSDRTIAYENKALMLCEGLFVADVTDFEGWKAAIPSALDTNSSKSTSSFPCPAGHFNGFRTVIRPFYLTNSSGVD
B2: Thyroxine-Binding Globulin (protein, UniProt P05543 21-415, looked up)
Thyroxine-binding globulin: ASPEGKVTACHSSQPNATLYKMSSINADFAFNLYRRFTVETPDKNIFFSPVSISAALVMLSFGACCSTQTEIVETLGFNLTDTPMVEIQHGFQHLICSLNFPKKELELQIGNALFIGKHLKPLAKFLNDVKTLYETEVFSTDFSNISAAKQEINSHVEMQTKGKVVGLIQDLKPNTIMVLVNYIHFKAQWANPFDPSKTEDSSSFLIDKTTTVQVPMMHQMEQYYHLVDMELNCTVLQMDYSKNALALFVLPKEGQMESVEAAMSSKTLKKWNRLLQKGWVDLFVPKFSISATYDLGATLLKMGIQHAYSENADFSGLTEDNGLKLSNAAHKAVLHIGEKGTEAAAVPEVELSDQPENTFLHPIIQIDRSFMLLILERSTRSILFLGKVVNPTEA
B3: CBG (protein, UniProt P08185 23-405, looked up)
Corticosteroid-binding …: MDPNAAYVNMSNHHRGLASANVDFAFSLYKHLVALSPKKNIFISPVSISMALAMLSLGTCGHTRAQLLQGLGFNLTERSETEIHQGFQHLHQLFAKSDTSLEMTMGNALFLDGSLELLESFSADIKHYYESEVLAMNFQDWATASRQINSYVKNKTQGKIVDLFSGLDSPAILVLVNYIFFKGTWTQPFDLASTREENFYVDETTVVKVPMMLQSSTISYLHDSELPCQLVQMNYVGNGTVFFILPDKGKMNTVIAALSRDTINRWSAGLTSSQVDLYIPKVTISGVYDLGDVLEEMGIADLFTNQANFSRITQDAQLKSSKVVHKAVLQLNEEGVDTAGSTGVTLNLTSKPIILRFNQPFIIMIFDHFTWSSLFLARVMNPV
B4: XEDAR (protein, UniProt Q9HAV5 1-297, looked up)
Tumor necrosis factor …: MDCQENEYWDQWGRCVTCQRCGPGQELSKDCGYGEGGDAYCTACPPRRYKSSWGHHRCQSCITCAVINRVQKVNCTATSNAVCGDCLPRFYRKTRIGGLQDQECIPCTKQTPTSEVQCAFQLSLVEADTPTVPPQEATLVALVSSLLVVFTLAFLGLFFLYCKQFFNRHCQRGGLLQFEADKTAKEESLFPVPPSKETSAESQVSENIFQTQPLNPILEDDCSSTSGFPTQESFTMASCTSESHSHWVHSPIECTELDLQKFSSSASYTGAETLGGNTVESTGDRLELNVPFEVPSP
B5: ALT (protein, UniProt P24298 2-496, looked up)
Alanine aminotransferase 1: ASSTGDRSQAVRHGLRAKVLTLDGMNPRVRRVEYAVRGPIVQRALELEQELRQGVKKPFTEVIRANIGDAQAMGQRPITFLRQVLALCVNPDLLSSPNFPDDAKKRAERILQACGGHSLGAYSVSSGIQLIREDVARYIERRDGGIPADPNNVFLSTGASDAIVTVLKLLVAGEGHTRTGVLIPIPQYPLYSATLAELGAVQVDYYLDEERAWALDVAELHRALGQARDHCRPRALCVINPGNPTGQVQTRECIEAVIRFAFEERLFLLADEVYQDNVYAAGSQFHSFKKVLMEMGPPYAGQQELASFHSTSKGYMGECGFRGGYVEVVNMDAAVQQQMLKLMSVRLCPPVPGQALLDLVVSPPAPTDPSFAQFQAEKQAVLAELAAKAKLTEQVFNEAPGISCNPVQGAMYSFPRVQLPPRAVERAQELGLAPDMFFCLRLLEETGICVVPGSGFGQREGTYHFRMTILPPLEKLRLLLEKLSRFHAKFTLEYS
B6: KIF23 (protein, UniProt Q02241 1-960, looked up)
Kinesin-like protein KIF23: MKSARAKTPRKPTVKKGSQTNLKDPVGVYCRVRPLGFPDQECCIEVINNTTVQLHTPEGYRLNRNGDYKETQYSFKQVFGTHTTQKELFDVVANPLVNDLIHGKNGLLFTYGVTGSGKTHTMTGSPGEGGLLPRCLDMIFNSIGSFQAKRYVFKSNDRNSMDIQCEVDALLERQKREAMPNPKTSSSKRQVDPEFADMITVQEFCKAEEVDEDSVYGVFVSYIEIYNNYIYDLLEEVPFDPIKPKPPQSKLLREDKNHNMYVAGCTEVEVKSTEEAFEVFWRGQKKRRIANTHLNRESSRSHSVFNIKLVQAPLDADGDNVLQEKEQITISQLSLVDLAGSERTNRTRAEGNRLREAGNINQSLMTLRTCMDVLRENQMYGTNKMVPYRDSKLTHLFKNYFDGEGKVRMIVCVNPKAEDYEENLQVMRFAEVTQEVEVARPVDKAICGLTPGRRYRNQPRGPVGNEPLVTDVVLQSFPPLPSCEILDINDEQTLPRLIEALEKRHNLRQMMIDEFNKQSNAFKALLQEFDNAVLSKENHMQGKLNEKEKMISGQKLEIERLEKKNKTLEYKIEILEKTTTIYEEDKRNLQQELETQNQKLQRQFSDKRRLEARLQGMVTETTMKWEKECERRVAAKQLEMQNKLWVKDEKLKQLKAIVTEPKTEKPERPSRERDREKVTQRSVSPSPVPLSSNYIAQISNGQQLMSQPQLHRRSNSCSSISVASCISEWEQKIPTYNTPLKVTSIARRRQQEPGQSKTCIVSDRRRGMYWTEGREVVPTFRNEIEIEEDHCGRLLFQPDQNAPPIRLRHRRSRSAGDRWVDHKPASNMQTETVMQPHVPHAITVSVANEKALAKCEKYMLTHQELASDGEIETKLIKGDIYKTRGGGQSVQFTDIETLKQESPNGSRKRRSSTVAPAQPDGAESEWTDVETRCSVAVEMRAGSQLGPGYQHHAQPKRKKP
B7: LYVE1 (protein, UniProt Q9Y5Y7 20-322, looked up)
Lymphatic vessel endothelial …: LVQGSLRAEELSIQVSCRIMGITLVSKKANQQLNFTEAKEACRLLGLSLAGKDQVETALKASFETCSYGWVGDGFVVISRISPNPKCGKNGVGVLIWKVPVSRQFAAYCYNSSDTWTNSCIPEIITTKDPIFNTQTATQTTEFIVSDSTYSVASPYSTIPAPTTTPPAPASTSIPRRKKLICVTEVFMETSTMSTETEPFVENKAAFKNEAAGFGGVPTALLVLALLFFGAAAGLGFCYVKRYVKAFPFTNKNQQKEMIETKVVKEEKANDSNPNEESKKTDKNPEESKSPSKTTVRCLEAEV
B8: CD5L (protein, UniProt O43866 20-347, looked up)
CD5 antigen-like: SPSGVRLVGGLHRCEGRVEVEQKGQWGTVCDDGWDIKDVAVLCRELGCGAASGTPSGILYEPPAEKEQKVLIQSVSCTGTEDTLAQCEQEEVYDCSHDEDAGASCENPESSFSPVPEGVRLADGPGHCKGRVEVKHQNQWYTVCQTGWSLRAAKVVCRQLGCGRAVLTQKRCNKHAYGRKPIWLSQMSCSGREATLQDCPSGPWGKNTCNHDEDTWVECEDPFDLRLVGGDNLCSGRLEVLHKGVWGSVCDDNWGEKEDQVVCKQLGCGKSLSPSFRDRKCYGPGVGRIWLDNVRCSGEEQSLEQCQHRFWGFHDCTHQEDVAVICSG

assay: SOMAscan serum proteomics in NASH subjects treated with selonsertib/simtuzumab, baseline and week 24; parameters: species or system human; settings: serum protein marker level; hepatic ballooning improvers; week 24 vs baseline

| Molecule | Median percent CHG at W24 in improver |
| --- | --- |
| B1 | −7.56% |
| B2 | −7.58% |
| B3 | 1.44% |
| B4 | 1.66% |

same assay, conditions: serum protein marker level; hepatic ballooning non-improvers; week 24 vs baseline

| Molecule | Median percent CHG at W24 in Non-improver |
| --- | --- |
| B1 | 7.44% |
| B2 | −1.5% |
| B3 | −2.655% |
| B4 | −0.875% |

same assay, conditions: serum protein marker level; lobular inflammation improvers; week 24 vs baseline

| Molecule | Median percent CHG at W24 in improver |
| --- | --- |
| B5 | −9.27% |
| B6 | 2.93% |
| B7 | −4.21% |
| B3 | 1.495% |
| B8 | −6.625% |

same assay, conditions: serum protein marker level; lobular inflammation non-improvers; week 24 vs baseline

| Molecule | Median percent CHG at W24 in Non-improver |
| --- | --- |
| B5 | −0.07% |
| B6 | −2.64% |
| B7 | 4.61% |
| B3 | −2.61% |
| B8 | 6.76% |
